PubChem BioAssay AID1224830, NIAID, 2016

- Purpose: 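Regulators of TLR4 signalling towards TNF-alpha in macrophage-like cells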 (primary screen)
- System: human THP-1 monocytic leukaemia cells, TNF dual-luciferase reporter clone, PMA-differentiated to macrophage-like cells
- Reagents: siRNA pool against human genes, 50 nM
- Timing: LPS for 4 h, given about 3 days after siRNA transfection
- Conditions: bacterial LPS (TLR4 ligand), 10 ng/ml
- Measured: 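Ratio of firefly to renilla light, scaled to the plate median and expressed as a robust z-score per replicate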
- Reading the numbers: TNF reporter robust z-score: higher = stronger TNF reporter response to LPS
- Hit rule: 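a well is active when its z-score exceeds 2.8 or falls below -1.5; control wells carry no call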
Shown is one part, drawn at random, of about 18,000 reagents tested. Of all reagents, about 2,900 (16%) got an active call. 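Calls are made per well; low scores hint the gene aids the LPS response, high scores that it dampens it.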 A number with no mark means an inactive call. Repeated entries: four replicate wells of each siRNA pool.

| Target gene | TNF reporter robust z-score |
| --- | --- |
| GINS1 | -0.11 |
| GINS1 | -0.43 |
| GINS1 | -0.27 |
| GINS1 | 0.03 |
| ILF3 | 0.64 |
| ILF3 | 2.96 (active) |
| ILF3 | 1.86 |
| ILF3 | 0.81 |
| RIC1 | 0.03 |
| RIC1 | -0.88 |
| RIC1 | -0.55 |
| RIC1 | -0.24 |
| DHX38 | 1.63 |
| DHX38 | 3.85 (active) |
| DHX38 | 2.56 |
| DHX38 | 0.4 |
| LRRC1 | 0.19 |
| LRRC1 | 0.05 |
| LRRC1 | 0.43 |
| LRRC1 | 0.07 |
| FHIT | 0.21 |
| FHIT | -0.09 |
| FHIT | -0.56 |
| FHIT | -0.42 |
| HAND1 | -0.2 |
| HAND1 | -0.03 |
| HAND1 | -0.11 |
| HAND1 | -0.26 |
| GSTM5 | -0.74 |
| GSTM5 | -0.54 |
| GSTM5 | -0.11 |
| GSTM5 | -0.61 |
| PPIAL4A | -0.76 |
| PPIAL4A | 0.2 |
| PPIAL4A | -0.39 |
| PPIAL4A | -0.47 |
| MAPK14 | 1.78 |
| MAPK14 | 2.12 |
| MAPK14 | 1.51 |
| MAPK14 | -0.04 |
| RAVER1 | -0.68 |
| RAVER1 | 0.17 |
| RAVER1 | -0.12 |
| RAVER1 | -0.01 |
| IGFBP1 | 0.37 |
| IGFBP1 | -0.92 |
| IGFBP1 | -1.24 |
| IGFBP1 | -0.79 |
| KIAA0232 | -1.09 |
| KIAA0232 | -0.67 |
| KIAA0232 | -0.91 |
| KIAA0232 | -1.35 |
| LGALS12 | -0.59 |
| LGALS12 | -0.14 |
| LGALS12 | 0.06 |
| LGALS12 | -0.2 |
| CD38 | 0.31 |
| CD38 | 0.94 |
| CD38 | 0.81 |
| CD38 | 0.79 |
| CLDN9 | 1.48 |
| CLDN9 | 0.62 |
| CLDN9 | -0.27 |
| CLDN9 | 0.36 |
| KLHDC3 | 0.06 |
| KLHDC3 | 1.92 |
| KLHDC3 | 1.16 |
| KLHDC3 | 1.61 |
| ANKRD22 | 0.56 |
| ANKRD22 | 1.27 |
| ANKRD22 | -0.1 |
| ANKRD22 | 1.84 |
| TMEM126B | -0.06 |
| TMEM126B | 0.99 |
| TMEM126B | 0.93 |
| TMEM126B | -0.09 |

Sorted by “TNF reporter robust z-score” (descending): 12 of the entries above
| Target gene | TNF reporter robust z-score |
| --- | --- |
| DHX38 | 3.85 (active) |
| DHX38 | 2.56 |
| LRRC1 | 0.43 |
| DHX38 | 0.4 |
| FHIT | 0.21 |
| LRRC1 | 0.19 |
| LRRC1 | 0.07 |
| LRRC1 | 0.05 |
| FHIT | -0.09 |
| HAND1 | -0.2 |
| FHIT | -0.42 |
| FHIT | -0.56 |
